PubChem BioAssay AID1259254 | NCATS – 2017

Purpose: 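Genome-wide screen for genes that prevent DNA re-replication in cancer cells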 (primary screen)
Cell system: human HCT116 colorectal cancer cells
Knock-down reagent: single siRNA against human genes
Time to read-out: 3 days
Detection: 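Nuclei stained with Hoechst and imaged; cell-cycle phase assigned by DNA content; G2 share scaled per plate, non-targeting siRNA 0%, GMNN siRNA 100%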
Reading the numbers: G2 robust z-score and G2 cells, % of GMNN control: higher = more G2 cells, more excess DNA replication; raw share of cells in G2: higher = larger share of cells with G2 DNA content
Active means: 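Active siRNAs have a G2 robust z of 5 or more median absolute deviations over the median, which in these data means about 38% or higher of GMNN control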
In all, the deposit lists about 59,000 reagents; below is a part drawn at random. About 1,550 of all reagents (2.6%) were called active. 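G2 share is only a proxy for re-replication; each gene was hit by three separate siRNAs, and active genes were retested.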 The raw values are shown without normalisation. A number with no mark means an inactive call. The numbers tell different reagents against one gene apart. Not given: the amount of reagent.

target gene	reagent no.	G2 robust z-score	G2 cells, % of GMNN control	raw share of cells in G2 (%)
YWHAG	1	-0.0259	2.79	5.3
YWHAG	2	1.22	11.6	8.29
YWHAG	3	1.96	16.7	12.7
LY6K	1	0.7	7.89	6.43
LY6K	2	-0.422	-0.00315	4.27
LY6K	3	-0.739	-2.23	2.45
NRAS	1	-1.27	-5.99	2.94
NRAS	2	-0.519	-0.684	2.97
NRAS	3	-0.359	0.438	4.93
COMMD5	1	3.36	26.6	14
COMMD5	2	-0.318	0.732	4.83
COMMD5	3	0.995	9.97	6.4
SOD3	1	-0.66	-1.68	5.12
SOD3	2	-0.331	0.637	4.77
SOD3	3	-0.451	-0.202	3.89
PRODH	1	-0.434	-0.0847	4.65
PRODH	2	2.41	19.9	10.8
PRODH	3	-0.271	1.06	5.34
TOMM22P5	1	-1.09	-4.67	2.63
TOMM22P5	2	-0.325	0.684	4.01
TOMM22P5	3	-0.0471	2.64	4.55
STX10	1	8.31 (active)	61.4	33.3
STX10	2	-0.273	1.05	3.78
STX10	3	-0.324	0.69	3.76
GALC	1	-1.27	-5.94	3.08
GALC	2	-0.0307	2.75	6.31
GALC	3	0.335	5.33	5.56
SNTA1	1	4.43	34.1	17.2
SNTA1	2	0.0836	3.56	5.77
SNTA1	3	-1.32	-6.35	1.86
XIAP	1	-0.0614	2.54	5.98
XIAP	2	-0.324	0.69	4.25
XIAP	3	-0.583	-1.13	4.33
KRTAP4-7	1	-1.39	-6.84	1.18
KRTAP4-7	2	0.047	3.3	4.03
KRTAP4-7	3	0.439	6.06	4.85
PEX5	1	-0.0477	2.63	5.02
PEX5	2	2.79	22.6	13.3
PEX5	3	2.46	20.3	11.9
ANTXR2	1	0.826	8.78	7.8
ANTXR2	2	-0.57	-1.04	5.19
ANTXR2	3	1.61	14.3	11.1
BCAS1	1	5.57 (active)	42.2	23.8
BCAS1	2	1	10	7.87
BCAS1	3	-0.542	-0.843	3.05
PDP2	1	-0.00948	2.9	5.74
PDP2	2	0.273	4.89	5.78
PDP2	3	-0.333	0.624	3.68
PGM2	1	1.81	15.7	13.3
PGM2	2	1.27	11.9	8.7
PGM2	3	0.743	8.19	7.75
KLHL28	1	0.388	5.7	5.64
KLHL28	2	-0.145	1.95	5.09
KLHL28	3	1.75	15.3	8.25
NEDD4	1	1.66	14.7	11.3
NEDD4	2	-0.0328	2.74	6.42
NEDD4	3	-0.202	1.55	3.71
WNT1	1	2.22	18.6	10.6
WNT1	2	-1.02	-4.22	2.69
WNT1	3	1.96	16.8	12.7
STK38	1	0.168	4.15	6.88
STK38	2	-0.947	-3.7	3.85
STK38	3	-0.596	-1.22	3.29
ATG4D	1	-0.371	0.356	4.62
ATG4D	2	1.33	12.3	11.4
ATG4D	3	-0.752	-2.32	3.97
CD4	1	0.131	3.89	6.41
CD4	2	-0.459	-0.26	4.01
CD4	3	2.19	18.4	11.5

Sorted by “raw share of cells in G2 (%)” (descending): 6 of the entries above
target gene	reagent no.	G2 robust z-score	G2 cells, % of GMNN control	raw share of cells in G2 (%)
XIAP	1	-0.0614	2.54	5.98
SNTA1	2	0.0836	3.56	5.77
XIAP	3	-0.583	-1.13	4.33
XIAP	2	-0.324	0.69	4.25
SNTA1	3	-1.32	-6.35	1.86
KRTAP4-7	1	-1.39	-6.84	1.18
